# Hit rate of the full screen: of about 1,400 compounds, fewer than 10 were called active. Inconclusive results (about 8%) are left out. The call rests on the fitted dose curve; in most records, active means well fitted curve in the direction sought with a large enough effect; inconclusive means small, poorly fitted or top-dose-only effect, or another doubt; inactive means no such curve, though single readings can be large or run the other way. Some of the results follow.
# By UniProt entry, the sequences of proteins in these tests, tags left out.
# UniProt Q8NER1, whole entry, looked up: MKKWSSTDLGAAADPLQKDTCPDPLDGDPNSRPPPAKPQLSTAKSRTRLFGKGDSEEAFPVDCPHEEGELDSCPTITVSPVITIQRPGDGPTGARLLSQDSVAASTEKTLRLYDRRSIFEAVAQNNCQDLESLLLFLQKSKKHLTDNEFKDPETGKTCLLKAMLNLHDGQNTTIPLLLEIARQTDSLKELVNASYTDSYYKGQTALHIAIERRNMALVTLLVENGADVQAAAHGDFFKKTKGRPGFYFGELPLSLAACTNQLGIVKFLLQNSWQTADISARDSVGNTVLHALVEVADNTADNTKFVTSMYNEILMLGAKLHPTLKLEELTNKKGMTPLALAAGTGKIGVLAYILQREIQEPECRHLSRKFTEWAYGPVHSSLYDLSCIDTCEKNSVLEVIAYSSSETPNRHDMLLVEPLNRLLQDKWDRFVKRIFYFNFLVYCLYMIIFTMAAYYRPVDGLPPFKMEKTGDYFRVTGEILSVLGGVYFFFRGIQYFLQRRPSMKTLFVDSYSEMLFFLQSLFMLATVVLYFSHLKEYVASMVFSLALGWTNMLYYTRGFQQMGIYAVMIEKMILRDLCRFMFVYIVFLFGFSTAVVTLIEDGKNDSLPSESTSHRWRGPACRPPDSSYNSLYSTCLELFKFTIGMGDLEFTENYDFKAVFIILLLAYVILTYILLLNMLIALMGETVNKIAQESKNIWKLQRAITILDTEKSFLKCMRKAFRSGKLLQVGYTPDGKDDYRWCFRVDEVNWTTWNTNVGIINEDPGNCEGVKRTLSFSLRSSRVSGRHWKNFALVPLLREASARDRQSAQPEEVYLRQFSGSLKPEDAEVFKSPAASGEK
# Molecular target: Transient receptor potential cation channel subfamily V member 1 (Homo sapiens) (UniProt Q8NER1)
# Test: qHTS Assay for Compounds that Act as Potentiators of the Vanilloid Receptor 1: Hit Validation; on activity change, positive = potentiation: % of control where 0% means no effect
# Conditions: TRPV1-expressing cells, Fluo-8 calcium influx, capsaicin EC20; series mostly up to 42.1 µM; activity change, positive = potentiation: at the top concentration
# Procedure, shortened: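 TRPV1 cells (2000/well, overnight 35.5 °C) loaded with Fluo-8 calcium dye 40–90 min at room temperature. FDSS fluorescence (ex 480/em 520 nm) read 3 min after compound, then 2 min after capsaicin at EC20.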
# Potency means the concentration at half of the fitted maximal effect.
Structure (SMILES),"activity change, positive = potentiation",Potency
Cc1nn(Cc2ccc(Cl)cc2)c(C)c1NC(=O)CCCn1nc(C)c([N+](=O)[O-])c1C,inactive: -16%,–
CC(=O)N1CCN(c2ccc(NC(=O)C(c3ccccc3)c3ccccc3)cc2)CC1,inactive: -5.18%,–
COc1ccc(C2=NCCn3nc4ccccc4c32)cc1,inactive: 5.29%,–
COc1cc(C)nc(-c2csc(C)n2)n1,inactive: 7.2%,–
O=C1Cc2cc([N+](=O)[O-])ccc2N1c1c(Cl)cccc1Cl,inactive: -2.88%,–
Cn1c(SCC(=O)Nc2cccc3ccccc23)nc(O)cc1=O,inactive: -1.99%,–
CCCNc1nc(=S)n(-c2ccccc2)c(C)c1C(C)=O,inactive: 35%,–
Cc1[nH]nc(SCC(=O)N2CCOCC2)c1[N+](=O)[O-],inactive: -5.31%,–
c1ccc(NC(c2ccccc2)c2ccncc2)cc1 (centres undefined),inactive: 4.64%,–
O=C(O)c1coc2ccccc12,inactive: -8.38%,–
CN(C)C=NC(=O)c1cc(C(=O)c2ccc(Cl)cc2)c[nH]1,inactive: -8.73%,–
Cc1ccccc1N(CC(=O)NC1CCCCC1)C(=O)CNC(=O)c1cccs1,inactive: -3.74%,–
CCO[C@H]1OC(C(=O)NC2CC2)=C[C@@H](c2ccccc2)[C@@H]1CCCO,inactive: -2.83%,–
CCc1ccccc1NC(=O)CCC(=O)c1cccs1,inactive: 0.167%,–
OC(COc1ccc(OCC(O)CN2CCCCC2)cc1)CN1CCCCC1 (centres undefined),inactive: -2.3%,–
Cc1c(C(C)NC(=O)c2ccc3nc(Cc4ccccc4F)oc3c2)cnn1C (centres undefined),inactive: -6.76%,–
CCCCSCCCNC(=O)Nc1cccc(OC)c1,inactive: -21.8%,–
Cc1ccnc(SC2CC(=O)N(c3ccc(Br)cc3)C2=O)n1 (centres undefined),inactive: 2.52%,–
Cc1cc(Cl)ccc1NNC(=O)c1c(C)noc1C,inactive: -1.73%,–
O=S(=O)(c1ccc(Oc2ccc(S(=O)(=O)N(CCO)CCO)cc2)cc1)N(CCO)CCO,inactive: -5.71%,–
O=c1c2ccccc2[nH]c(=S)n1CCCN1CCN(c2ccccc2)CC1,inactive: 9.01%,–
O=C(N/N=C/c1c[nH]c2ccccc12)c1cc(-c2ccc3ccccc3c2)n[nH]1,inactive: -9.22%,–

Structure (SMILES),"activity change, positive = potentiation",Potency
COC(=O)CC1C(=O)NCCN1C(=O)Nc1ccc(Cl)c(Cl)c1 (centres undefined),inactive: -12.3%,–
Cc1cccn2c(CN3CCCN(C=O)CC3)c(C(=O)N(C)CCc3ccccc3)nc12,inactive: -2.2%,–
CN(C)CCCN(Cc1ccc2c(c1)OCO2)C(=O)NC1CCCCC1,inactive: -6.9%,–
CCNC(=O)COc1ccc(/C=C2\COc3ccccc3C2=O)cc1OC,inactive: -4.64%,–
O=C(NCc1ccc2c(c1)OCO2)c1c(Cl)cccc1Cl,inactive: 1.53%,–
COc1cc(/C=N\NC(=O)C2COc3ccccc3O2)cc(OC)c1O (centres undefined),inactive: -36.2%,–
COc1ccccc1C/C(N)=N/OC(=O)COc1cccc(C)c1C,inactive: -6.5%,–
CCCCCCC(=O)Nc1ccc(C(=O)N/N=C/c2cccnc2)cc1,inactive: -39.2%,–
CC(C)c1ccc(NC(=O)N2CCOCC2)cc1,inactive: -39%,–
COc1ccc(NC(=O)C2CCCN(c3nccc(C)n3)C2)cc1 (centres undefined),inactive: -4.95%,–
N#Cc1ncc(C(F)(F)F)cc1Sc1ccc(N)cc1,inactive: -1.41%,–
CC(OC(=O)Cc1n[nH]c(=O)c2ccccc12)C(=O)Nc1ccc(F)cc1 (centres undefined),inactive: 11.3%,–
O=C(O)CN1C(=O)/C(=C\c2ccc(OC(=O)c3ccco3)cc2)SC1=S,inactive: 11.4%,–
CCN(C(=O)COC(=O)c1cncc(Br)c1)C1CCS(=O)(=O)C1 (centres undefined),inactive: 15.8%,–
O=C(CCS(=O)(=O)c1ccccc1)Nc1nncs1,inactive: 1.87%,–
O=C(O)c1sccc1S(=O)(=O)N1CCN(c2ccc(C(F)(F)F)cn2)CC1,inactive: -3.75%,–
Cc1sc2ncnc(OCC(=O)N3CC(=O)Nc4ccccc43)c2c1C,inactive: 2.04%,–
Cn1cccc1C(=O)NC(=O)COC(=O)c1cc([N+](=O)[O-])ccc1Cl,inactive: 8.04%,–
COc1ccc(C(=O)CC(=O)C(=O)Nc2cc([N+](=O)[O-])ccc2OC)cc1,inactive: -6.17%,–
CCN(CC)CC(C)OC(=O)c1cc(OC)c(OC)c(OC)c1 (centres undefined),inactive: 4.12%,–
COc1ccc(Nc2nc(NCc3ccco3)nc(N3CCOCC3)n2)cc1,inactive: -36.9%,–
Cc1ccc(S(=O)(=O)NCCN2CCOCC2)cc1C,inactive: -0.504%,–

Structure (SMILES),"activity change, positive = potentiation",Potency
Cn1ncc([N+](=O)[O-])c1C(=O)Nc1ccccc1,inactive: -1.33%,–
NC(=O)c1ccc(-n2nnnc2Oc2ccccc2C(=O)N2CCOCC2)cc1,inactive: 1.65%,–
O=C(NC(=S)Nc1nc(-c2cccc([N+](=O)[O-])c2)cs1)c1ccccc1Cl,inactive: 3.45%,–
COc1ccc(-[n+]2c(C)cc(/C=C3\Sc4ccccc4N3C)cc2C)cc1,–,active: 5.7 µM
c1ccc(-c2nnc(CN3CCC4(CC3)OCCO4)o2)cc1,inactive: -1.85%,–
O=C(CC1CCCC1)N1CCCC(Nc2cccc(F)c2)C1 (centres undefined),inactive: -38.1%,–
CN(C)C(CNC(=O)CNC(=O)Cc1cccc2ccccc12)c1ccccc1 (centres undefined),inactive: 1.58%,–
CCCOc1ccc(C2C(C(=O)/C=C/c3ccco3)=C(O)C(=O)N2CCN2CCOCC2)cc1OC (centres undefined),inactive: -2.86%,–
CCC(=O)NC(c1ccc(OC)cc1)c1cc(Cl)c2cccnc2c1O (centres undefined),inactive: -0.694%,–
CC(C)(C)c1ccc(C(=O)Nc2ccc(S(N)(=O)=O)cc2)cc1,inactive: -39%,–
CCc1ccc2oc(C(=O)Nc3cccnc3)c(C)c2c1,inactive: -35.7%,–
Cc1ccc2nc(NC(=O)CCCc3nc4ccccc4s3)sc2c1,inactive: 0.136%,–
CCOC(=O)[C@H]1[C@H]2COc3ccc(OC)cc3[C@@H]2N2C(=O)c3cc(C)ccc3NC(=O)[C@@]12C,inactive: -39%,–
COc1ccc(CNC(=S)Nc2cccc(F)c2)cc1,inactive: -32.8%,–
CS(=O)(=O)c1ccccc1-c1nc(-c2ccc([N+](=O)[O-])cc2)no1,inactive: -2.72%,–
O=C(O)c1cc(S(=O)(=O)Nc2ccccc2Cc2ccccc2)ccc1Cl,inactive: 7.05%,–
CNC(=O)c1csc(-c2ccc(Cl)cc2)n1,inactive: -37.6%,–
O=C(CCC(=O)Nc1nnc(C2CCCCC2)s1)NCc1cccs1,inactive: -4.56%,–
Cc1cc(C)cc(NC(=O)CCn2ccnc2C)c1,inactive: 0.62%,–
CN(Cc1nc2ccccc2n1C)C(=O)c1ccco1,inactive: 6.29%,–
CC(C)(C)c1ccc(C(=O)Nc2cccnc2)cc1,inactive: -39.5%,–
COc1ccc(-n2c(CN3CCN(c4ccc(F)cc4)CC3)nc3ccc([N+](=O)[O-])cc3c2=O)c(OC)c1,inactive: -3.22%,–

Structure (SMILES),"activity change, positive = potentiation",Potency
CCOC(=O)c1c(N2C(=O)Nc3ccccc3N2O)n[nH]c1-c1cccc(Cl)c1,inactive: -4.57%,–
CCCCn1c(=O)[nH]c2c(oc3ccccc32)c1=O,inactive: 2.87%,–
Cc1ccc(Nc2ncnc3sc(C)c(C)c23)cc1,inactive: -39%,–
O=C(CSc1ncccc1-c1nc2ccccc2[nH]1)N1CCc2ccccc21,inactive: -0.648%,–
CN(Cc1c(O)ccc2c1oc(=O)c1ccccc12)C1CCCCC1,inactive: -11.4%,–
Cc1ccc(NC(=O)c2cnc3ccccc3n2)cc1C,inactive: -28.6%,–
Cc1cccc(N2CCN(C(=O)NC3CCCCC3)CC2C)c1 (centres undefined),inactive: -33.8%,–
CCOC(=O)[C@H]1[C@H]2COc3ccc(C)cc3[C@@H]2N2C(=O)c3ccccc3NC(=O)[C@@]12C,inactive: -38.4%,–
COc1cccc(CNC(=S)Nc2cccc(Cl)c2C)c1,inactive: -38.9%,–
O=C(NCc1ccncc1)C1CCCN(S(=O)(=O)c2cc(Cl)ccc2Cl)C1 (centres undefined),inactive: -28.8%,–
COc1ccc(Cl)cc1NC(=O)CSc1nc(-c2ccccc2)cc(=O)[nH]1,inactive: -3.9%,–
CC(=O)Nc1cccc(NC(C)=O)n1,inactive: -5.38%,–
CC(=O)N1C(C(=O)O)Cc2c([nH]c3ccccc23)C1(C)C (centres undefined),inactive: -10.9%,–
O=C(NCC1COc2ccccc2O1)c1ccc(Br)s1 (centres undefined),inactive: -32.3%,–
C=CCOc1ccc(C2C(C(=O)c3ccco3)=C(O)C(=O)N2Cc2cccnc2)cc1 (centres undefined),inactive: 0.175%,–
CCOc1ccc(NC(=S)NC(=O)Cc2ccccc2)cc1,inactive: -38.5%,–
COc1ccc(S(=O)(=O)Nc2nc3ccccc3s2)cc1,inactive: -6.98%,–
COC(=O)[C@@]12CCCN1[C@H](c1ccc(-c3ccc4c(c3)OCO4)c(OC)c1)[C@H]1C(=O)N(C)C(=O)[C@H]12,inactive: -5.16%,–
Cc1c(N=c2scc(-c3ccccc3)n2C)c(=O)n(-c2ccccc2)n1C,inactive: 4.71%,–
Cc1ccc(S(=O)(=O)NCC(c2cccnc2)N2CCOCC2)cc1 (centres undefined),inactive: -3.52%,–
O=C(O)CC1(CC(=O)N2CCOCC2)CCCC1,inactive: -4.21%,–
C/C(=N\NC(=O)c1nnn(-c2nonc2N)c1CN1CCc2ccccc21)c1ccccc1O,inactive: -1.11%,–

Structure (SMILES),"activity change, positive = potentiation",Potency
CN(Cc1ccccc1Cl)C(=O)c1cc2ccccc2o1,inactive: -15%,–
Cc1ccc2oc(=O)c3cnn(CC(=O)N4CCN(c5ccccn5)CC4)c3c2c1,inactive: -11.8%,–
CN(C(=O)COC(=O)CSc1ccc(C(N)=O)cc1[N+](=O)[O-])C1CCCCC1,inactive: 4.07%,–
O=C(O)CSc1nc2sc3c(c2c(=O)n1-c1ccccc1)CCC3,inactive: 5.51%,–
Cc1cc2c(cc1C)NC(c1ccccn1)C1=C(CC(C)(C)CC1=O)N2 (centres undefined),inactive: -3.59%,–
CCOCc1cc(CN2CCC(CCC(=O)NC3CC3)CC2)ccc1OC,inactive: 2.44%,–
Cc1ccc(C(=O)NC(=S)NNS(=O)(=O)c2ccc(C)cc2)cc1,inactive: 7.68%,–
CCS(=O)(=O)n1c(Cc2cccs2)nc2ccccc21,inactive: -8.44%,–
Cc1nn(-c2nnc(C)c(=O)[nH]2)c(C)c1SCC(=O)Nc1ccc(C(C)C)cc1,inactive: -6.19%,–
O=C(NCc1ccccc1)[C@@H]1C[C@H]1[C@@H](NP(=O)(c1ccccc1)c1ccccc1)c1ccccc1,inactive: -38.5%,–
COc1cc(/C=N/NC(=S)Nc2cccnc2)cc(OC)c1OC,inactive: -9.74%,–
CC(C)NC(=O)C(C)N1CCN(S(=O)(=O)c2ccc3ccccc3c2)CC1 (centres undefined),inactive: -6.72%,–
Cc1ncoc1C(=O)Nc1ccc(Oc2ccccc2)cc1,inactive: -24.3%,–
Cc1ccc(S(=O)(=O)N2[C@@H](c3ccccc3F)C(C(=O)O)=CC[C@H]2c2cccc(C)c2)cc1,inactive: -4.23%,–
CC(C)C[C@H](NC(=O)c1nc[nH]c1C(=O)N1CCN(c2ccccc2)CC1)C(=O)OC(C)(C)C,inactive: -8.68%,–
Cc1ccc(NC(=O)c2cc3ccccc3o2)cc1,inactive: 2.85%,–
CCOC(=O)c1sc2nc(CC(=O)OC)nc(N3CCN(c4ccc(OC)cc4)CC3)c2c1C,inactive: -7%,–
CC(C)(C)c1ccc(OCCCC(=O)N2CCOCC2)cc1,inactive: -39.3%,–
CCCCOc1ccc(C(=O)Nc2ccncc2)cc1,inactive: -39.1%,–
O=C(O)c1ccc(S(=O)(=O)NC2CCCCCC2)cc1,inactive: -17.5%,–
COCCn1c(-c2ccc(OC)cc2)cnc1SCC(=O)Nc1cccc2ccccc12,inactive: -6.92%,–

# Shown with tabs: entries from further up.
Structure (SMILES)	activity change, positive = potentiation	Potency
N#Cc1ncc(C(F)(F)F)cc1Sc1ccc(N)cc1	inactive: -1.41%	–
CCN(CC)CC(C)OC(=O)c1cc(OC)c(OC)c(OC)c1 (centres undefined)	inactive: 4.12%	–
CCOC(=O)c1c(N2C(=O)Nc3ccccc3N2O)n[nH]c1-c1cccc(Cl)c1	inactive: -4.57%	–

# Reference: PubChem BioAssay AID623959 (National Center for Advancing Translational Sciences (NCATS), 2012)
